PubChem BioAssay AID1224828 | NIAID | 2016
The deposit covers about 17,000 reagents; shown is a random part of them. Of all reagents, 762 (4.5%) are marked active. 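Active calls include both raised and lowered p65 entry, mostly lowered; wells with fewer than 50 cells lack a z-score.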 Raw values are not corrected between plates. Unmarked entries are inactive.

- Screen: 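Regulators linking TLR4 signalling to p65 nuclear translocation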 (primary screen)
- Cells: mouse RAW264.7 G9 macrophage reporter cells (GFP-p65, Tnf promoter-mCherry)
- Reagent: siRNA pool against mouse genes, 100 nM
- Duration: 2 days siRNA transfection, then 40 min LPS before fixation
- Treatment: LPS (Salmonella minnesota R595) at 10 ng/ml
- Measurement: 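Microscopy ratio of nuclear to perinuclear-ring GFP-p65 signal, scaled to the plate median; gene score is the average of two replicate robust z-scores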
- Direction: p65 translocation robust z-score: higher = more nuclear NF-kappaB p65 after LPS than the plate median; nuclear/cytoplasmic p65 ratio: higher = more nuclear NF-kappaB p65
- Active means: 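Called active when z exceeds 3.3 or falls under -1.56 (median of Tlr4 controls), giving activity score of at least 50; no calls for control wells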
- Calls: active = hit (p65 shift raised or lowered); inactive = no clear change

{"gene knocked down":"Efcab5","p65 translocation robust z-score":-0.39,"nuclear/cytoplasmic p65 ratio, rep 1":1.21,"nuclear/cytoplasmic p65 ratio, rep 2":1.26,"low cell count flag":"enough cells to score"}
{"gene knocked down":"Ces2e","p65 translocation robust z-score":"-2.52 (active)","nuclear/cytoplasmic p65 ratio, rep 1":1.1,"nuclear/cytoplasmic p65 ratio, rep 2":1.17,"low cell count flag":"enough cells to score"}
{"gene knocked down":"St6galnac1","p65 translocation robust z-score":1.31,"nuclear/cytoplasmic p65 ratio, rep 1":1.55,"nuclear/cytoplasmic p65 ratio, rep 2":1.41,"low cell count flag":"enough cells to score"}
{"gene knocked down":"Wdr47","p65 translocation robust z-score":-1.09,"nuclear/cytoplasmic p65 ratio, rep 1":1.22,"nuclear/cytoplasmic p65 ratio, rep 2":1.25,"low cell count flag":"enough cells to score"}
{"gene knocked down":"Adam6a","p65 translocation robust z-score":0.52,"nuclear/cytoplasmic p65 ratio, rep 1":1.69,"nuclear/cytoplasmic p65 ratio, rep 2":1.76,"low cell count flag":"enough cells to score"}
{"gene knocked down":"Pcdh8","p65 translocation robust z-score":1.24,"nuclear/cytoplasmic p65 ratio, rep 1":1.62,"nuclear/cytoplasmic p65 ratio, rep 2":1.57,"low cell count flag":"enough cells to score"}
{"gene knocked down":"Ak2","p65 translocation robust z-score":-0.35,"nuclear/cytoplasmic p65 ratio, rep 1":1.56,"nuclear/cytoplasmic p65 ratio, rep 2":1.4,"low cell count flag":"enough cells to score"}
{"gene knocked down":"Dsg2","nuclear/cytoplasmic p65 ratio, rep 1":1.52,"nuclear/cytoplasmic p65 ratio, rep 2":1.26,"low cell count flag":"fewer than 50 cells per well; well left out of scoring"}
{"gene knocked down":"Aqr","nuclear/cytoplasmic p65 ratio, rep 1":1.27,"nuclear/cytoplasmic p65 ratio, rep 2":2.09,"low cell count flag":"fewer than 50 cells per well; well left out of scoring"}
{"gene knocked down":"Rnft2","p65 translocation robust z-score":0.8,"nuclear/cytoplasmic p65 ratio, rep 1":1.56,"nuclear/cytoplasmic p65 ratio, rep 2":2.13,"low cell count flag":"enough cells to score"}
{"gene knocked down":"Fbxo48","nuclear/cytoplasmic p65 ratio, rep 1":1.34,"nuclear/cytoplasmic p65 ratio, rep 2":1.36,"low cell count flag":"fewer than 50 cells per well; well left out of scoring"}
{"gene knocked down":"Gopc","p65 translocation robust z-score":-0.37,"nuclear/cytoplasmic p65 ratio, rep 1":1.39,"nuclear/cytoplasmic p65 ratio, rep 2":1.32,"low cell count flag":"enough cells to score"}
{"gene knocked down":"Tcl1b5","nuclear/cytoplasmic p65 ratio, rep 1":1.12,"nuclear/cytoplasmic p65 ratio, rep 2":1.08,"low cell count flag":"fewer than 50 cells per well; well left out of scoring"}
{"gene knocked down":"Prkcg","p65 translocation robust z-score":0.98,"nuclear/cytoplasmic p65 ratio, rep 1":1.82,"nuclear/cytoplasmic p65 ratio, rep 2":1.52,"low cell count flag":"enough cells to score"}

2 neighbouring entries already listed, quoted:
{"gene knocked down":"Ces2e","p65 translocation robust z-score":"-2.52 (active)","nuclear/cytoplasmic p65 ratio, rep 1":1.1,"nuclear/cytoplasmic p65 ratio, rep 2":1.17,"low cell count flag":"enough cells to score"}
{"gene knocked down":"St6galnac1","p65 translocation robust z-score":1.31,"nuclear/cytoplasmic p65 ratio, rep 1":1.55,"nuclear/cytoplasmic p65 ratio, rep 2":1.41,"low cell count flag":"enough cells to score"}
